Assay results published in the supplement of paper PMC12823440, “Inhibitors supercharge kinase turnover through native proteolytic circuits” (Nature, 2025).
Where a name gives a salt, the structure may show the parent alone. The list shows a part of the results. Hit calls seldom repeat between salt and free forms of one compound.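 In K562 cells expressing nanoluciferase-fused kinases, luminescence was recorded at 4 h intervals between 2 and 18 h, normalized as percent of control with DMSO at 100% and a positive control at 0%. A significant (2 sigma) signal drop marks a time point as decreased. The authors' rule for a hit is not shown and takes in more than the number of time points.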

Molecular target: EGFR_L718V (UniProt P00533)
Experiment: kinase-Nluc reporter destabilization hit call (1 = scored as downregulated) (binary); higher = compound decreases kinase abundance
Conditions: 2.5 µM; K562; 2-18 h

kinase-Nluc reporter destabilization hit call, inactive:
C=CC(=O)N1CCC[C@@H](n2nc(-c3ccc(Oc4ccccc4)cc3)c3c(N)ncnc32)C1 [Ibrutinib] 0
Cc1cn(-c2cc(NC(=O)c3ccc(C)c(Nc4nccc(-c5cccnc5)n4)c3)cc(C(F)(F)F)c2)cn1 [Nilotinib] 0
Cc1cc(C)n2c1C=C1C=CC(CCC(=O)NCCN3CCN(C/C=C/C(=O)N4CCCC(n5nc(-c6ccc(Oc7ccccc7)cc6)c6c(N)ncnc65)C4)CC3)=[N+]1[B-]2(F)F (stereo unspecified) 0
Cc1cnc(Nc2ccc(OCCN3CCCC3)cc2)nc1Nc1cccc(S(=O)(=O)NC(C)(C)C)c1 [Fedratinib (hydrochloride hydrate)] 0
O=C(Nc1cccc(Nc2nccc(Nc3cccc(C(F)(F)F)c3)n2)c1)C1CC1 [Aurora kinase inhibitor-3] 0
COc1ccc(-c2cc3nccn3c(Nc3ncccc3C(N)=O)n2)cc1OC [BAY 61-3606 (dihydrochloride)] 0
Nc1nc(Nc2ccc(S(N)(=O)=O)cc2)nn1C(=O)c1c(F)cccc1F 0
COc1cc(N2CCC(N3CCN(C)CC3)CC2)ccc1Nc1ncc(Cl)c(Nc2ccccc2S(=O)(=O)C(C)C)n1 0
COc1cc(Nc2c(C#N)cnc3cc(OCCCN4CCN(C)CC4)c(OC)cc23)c(Cl)cc1Cl [Bosutinib] 0
CCc1cc2c(cc1-c1cnn(CC(=O)N(C)C)c1)C(C)(C)c1[nH]c3cc(C#N)ccc3c1C2=O 0
Cc1cnc(Nc2ccc(OCCN3CCCC3)cc2)nc1Nc1cccc(S(=O)(=O)NC(C)(C)C)c1 [Fedratinib] 0

Two successive records already listed:
kinase-Nluc reporter destabilization hit call, inactive:
CCc1cc2c(cc1-c1cnn(CC(=O)N(C)C)c1)C(C)(C)c1[nH]c3cc(C#N)ccc3c1C2=O 0
Cc1cnc(Nc2ccc(OCCN3CCCC3)cc2)nc1Nc1cccc(S(=O)(=O)NC(C)(C)C)c1 [Fedratinib] 0
